PubChem BioAssay AID1159578, Peter MacCallum Cancer Centre – 2015
Purpose: 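Genome-wide hunt for genes controlling movement of lymphatic endothelial cells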 (primary screen). Cell system: human lymphatic endothelial cells. Knock-down reagent: siRNA pool against human genes, 40 nM. Duration: 48 h after transfection. Measured: 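High-content imaging of dye-stained cells in a scratch assay measures filled wound area and nuclei per well; duplicate means given as ratio to mock and robust z-score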. Reading the numbers: migration robust z-score: higher = faster migration into the scratch; nuclei per well: higher = more cells in the well. Rule for the call: 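Pools averaging fewer than 3300 nuclei are never called; remaining pools count as changed when migration robust z lies outside -2 to 2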. Calls: active = migration changed; inactive = no migration change, or too few cells.
Shown is one part, drawn at random, of about 18,000 reagents. About 1,030 of them (5.7%) were called active. 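Inactive calls also include pools with fewer than 3300 nuclei, whose migration was not assessed.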 Raw values are not corrected between plates. Not all columns of the deposit are shown.

With LRRK1 (GeneID 79705), how do the results read?
migration robust z-score: -0.83; migration class with cell-count check: migration z between -2 and 2; enough cells; nuclei per well, duplicate mean: 4972; activity call: inactive

With KLHL9 (GeneID 55958), how do the results read?
migration robust z-score: -0.38; migration class with cell-count check: migration z between -2 and 2; enough cells; nuclei per well, duplicate mean: 4382; activity call: inactive

What is on record for GTPBP10 (GeneID 85865)?
migration robust z-score: 0.36; migration class with cell-count check: migration z between -2 and 2; enough cells; nuclei per well, duplicate mean: 5166; activity call: inactive

For LRSAM1 (GeneID 90678), how do the results read?
migration robust z-score: -3.12; migration class with cell-count check: migration z below -2; enough cells; nuclei per well, duplicate mean: 4049; activity call: active

Entries listed so far marked active:
LRSAM1 (GeneID 90678) — migration robust z-score = -3.12; migration class with cell-count check = migration z below -2; enough cells; nuclei per well, duplicate mean = 4049; activity call = active

Further results follow.
With PARD3B (GeneID 117583), how do the results read?
migration robust z-score: -0.43; migration class with cell-count check: migration z between -2 and 2; enough cells; nuclei per well, duplicate mean: 6322; activity call: inactive

For CAMTA1 (GeneID 23261), what does the deposit list?
migration robust z-score: 0.2; migration class with cell-count check: migration z between -2 and 2; enough cells; nuclei per well, duplicate mean: 4699; activity call: inactive

For TP53I11 (GeneID 9537), what was measured?
migration robust z-score: -2.8; migration class with cell-count check: migration z below -2; enough cells; nuclei per well, duplicate mean: 5722; activity call: active

Which result is listed for IMPA2 (GeneID 3613)?
migration robust z-score: 1.33; migration class with cell-count check: migration z between -2 and 2; enough cells; nuclei per well, duplicate mean: 3972; activity call: inactive

With PBX1 (GeneID 5087), what was measured?
migration robust z-score: 0.5; migration class with cell-count check: migration z between -2 and 2; enough cells; nuclei per well, duplicate mean: 4014; activity call: inactive

What did the screen give for INCA1 (GeneID 388324)?
migration robust z-score: 0.7; migration class with cell-count check: migration z between -2 and 2; enough cells; nuclei per well, duplicate mean: 5119; activity call: inactive

For CHST1 (GeneID 8534), how do the results read?
migration robust z-score: -1.43; migration class with cell-count check: migration z between -2 and 2; enough cells; nuclei per well, duplicate mean: 3382; activity call: inactive

Which result is listed for CPAMD8 (GeneID 27151)?
migration robust z-score: -0.43; migration class with cell-count check: migration z between -2 and 2; enough cells; nuclei per well, duplicate mean: 4336; activity call: inactive
